Paper PMC4755741
No constants are given. Whether binding was seen depends on the method and setting. In cells and extracts the contact can be indirect. Some binding calls cover weakened binding; strength is not graded here. Each block holds one substance with its values, some of them ahead of it.

Sequences of proteins named here, by UniProt entry; tags and fusion partners are left off. A change or cut given only in a name is not applied to a line headed by its entry.
UniProt Q91X17: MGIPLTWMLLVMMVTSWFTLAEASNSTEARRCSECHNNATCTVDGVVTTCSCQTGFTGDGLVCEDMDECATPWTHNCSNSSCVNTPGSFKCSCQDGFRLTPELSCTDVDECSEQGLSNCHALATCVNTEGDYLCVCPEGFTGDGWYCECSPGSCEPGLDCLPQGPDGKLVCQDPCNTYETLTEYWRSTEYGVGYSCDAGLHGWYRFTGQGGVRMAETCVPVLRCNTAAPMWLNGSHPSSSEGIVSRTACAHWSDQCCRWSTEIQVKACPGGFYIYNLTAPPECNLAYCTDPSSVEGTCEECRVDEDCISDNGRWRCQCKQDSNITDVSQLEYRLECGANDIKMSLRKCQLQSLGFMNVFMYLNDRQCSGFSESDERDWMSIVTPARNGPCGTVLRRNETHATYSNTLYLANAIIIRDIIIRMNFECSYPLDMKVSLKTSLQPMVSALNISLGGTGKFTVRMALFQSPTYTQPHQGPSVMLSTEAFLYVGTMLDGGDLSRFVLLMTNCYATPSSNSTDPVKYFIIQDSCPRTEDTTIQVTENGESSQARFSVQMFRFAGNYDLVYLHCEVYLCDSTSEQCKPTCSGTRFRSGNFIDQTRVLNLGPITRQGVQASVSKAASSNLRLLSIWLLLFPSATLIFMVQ

Assays:
Test in all cases: co-sedimentation; polymerisation assay on urinary samples as in Jovine et al., 2002; supernatant and pellet fractions blotted for uromodulin
[1] = target: urinary uromodulin, long isoform, from Hpn-/- mice (mouse (endogenous in urine)) (UniProt Q91X17)
[2] = target: urinary uromodulin, short isoform, from Hpn-/- mice (mouse (endogenous in urine)) (UniProt Q91X17)
[3] = target: urinary uromodulin from control (wild-type) mice (mouse (endogenous in urine)) (UniProt Q91X17)

binding [1]: no binding
Substance: urinary uromodulin, long isoform, from Hpn-/- mice (from UniProt Q91X17 25-616)

binding [2]: no binding
Substance: urinary uromodulin, short isoform, from Hpn-/- mice (from UniProt Q91X17 25-607)

binding [3]: binds
Substance: urinary uromodulin from control (wild-type) mice (from UniProt Q91X17 25-588)
